Assay results published in PMC4649702.
Results are given in words; binding and its absence hold for the method and conditions named. In cells and extracts the contact can be indirect. Some results given as binding are weak or reduced against the parent protein; the word gives no strength. For some assays here: Tags and fused reporters may be left off the sequences shown.

Chains of the proteins cited; added tags and fusions are not shown.
UniProt P19838: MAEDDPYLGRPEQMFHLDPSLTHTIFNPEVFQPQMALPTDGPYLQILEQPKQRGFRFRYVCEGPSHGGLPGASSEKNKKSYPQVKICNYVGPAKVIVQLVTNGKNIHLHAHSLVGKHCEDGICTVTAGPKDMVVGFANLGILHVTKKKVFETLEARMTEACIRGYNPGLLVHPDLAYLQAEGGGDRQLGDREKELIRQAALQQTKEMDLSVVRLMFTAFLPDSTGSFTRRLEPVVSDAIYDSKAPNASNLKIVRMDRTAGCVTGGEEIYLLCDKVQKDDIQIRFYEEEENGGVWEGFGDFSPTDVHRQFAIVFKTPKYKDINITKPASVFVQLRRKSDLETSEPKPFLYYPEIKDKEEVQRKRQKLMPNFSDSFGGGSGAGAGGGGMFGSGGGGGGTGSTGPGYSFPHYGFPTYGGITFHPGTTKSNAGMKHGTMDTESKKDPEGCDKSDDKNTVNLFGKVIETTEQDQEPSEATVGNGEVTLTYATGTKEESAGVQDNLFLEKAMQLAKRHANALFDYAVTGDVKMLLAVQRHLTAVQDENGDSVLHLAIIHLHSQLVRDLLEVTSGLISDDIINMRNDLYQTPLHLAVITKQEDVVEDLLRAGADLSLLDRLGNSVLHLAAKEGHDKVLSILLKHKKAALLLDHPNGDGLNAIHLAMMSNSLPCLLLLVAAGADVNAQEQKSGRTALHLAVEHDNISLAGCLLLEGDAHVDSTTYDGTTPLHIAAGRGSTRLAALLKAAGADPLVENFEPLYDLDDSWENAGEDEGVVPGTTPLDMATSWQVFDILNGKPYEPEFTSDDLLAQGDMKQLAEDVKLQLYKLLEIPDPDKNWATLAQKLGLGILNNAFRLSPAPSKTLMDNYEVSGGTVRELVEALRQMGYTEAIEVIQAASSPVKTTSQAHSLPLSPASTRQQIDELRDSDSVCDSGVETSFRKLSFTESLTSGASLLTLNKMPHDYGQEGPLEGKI
UniProt P0C796: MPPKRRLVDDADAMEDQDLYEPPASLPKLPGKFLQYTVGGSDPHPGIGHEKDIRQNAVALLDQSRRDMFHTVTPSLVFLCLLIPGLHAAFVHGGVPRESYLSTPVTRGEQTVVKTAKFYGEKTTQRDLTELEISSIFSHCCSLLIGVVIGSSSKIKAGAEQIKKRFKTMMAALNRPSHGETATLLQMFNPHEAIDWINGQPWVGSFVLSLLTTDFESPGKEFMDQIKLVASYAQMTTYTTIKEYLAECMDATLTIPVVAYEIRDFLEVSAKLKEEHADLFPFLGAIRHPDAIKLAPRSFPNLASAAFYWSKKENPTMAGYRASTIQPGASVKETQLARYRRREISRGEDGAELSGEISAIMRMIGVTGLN

Columns and labels:
[1] = target: T1, FLAG-tagged NF-κB2 (human) (UniProt Q00653); assay: co-IP; lysates of separately transfected 293T cells (20 mM Tris-HCl pH 7.4, 150 mM NaCl, 1% Triton-X, 1 mM EDTA, protease inhibitors) mixed for 30 min at 4°C; immunoprecipitated with anti-FLAG M2 on Protein G Dynabeads; blotted with anti-HA and anti-FLAG
T1 sequence: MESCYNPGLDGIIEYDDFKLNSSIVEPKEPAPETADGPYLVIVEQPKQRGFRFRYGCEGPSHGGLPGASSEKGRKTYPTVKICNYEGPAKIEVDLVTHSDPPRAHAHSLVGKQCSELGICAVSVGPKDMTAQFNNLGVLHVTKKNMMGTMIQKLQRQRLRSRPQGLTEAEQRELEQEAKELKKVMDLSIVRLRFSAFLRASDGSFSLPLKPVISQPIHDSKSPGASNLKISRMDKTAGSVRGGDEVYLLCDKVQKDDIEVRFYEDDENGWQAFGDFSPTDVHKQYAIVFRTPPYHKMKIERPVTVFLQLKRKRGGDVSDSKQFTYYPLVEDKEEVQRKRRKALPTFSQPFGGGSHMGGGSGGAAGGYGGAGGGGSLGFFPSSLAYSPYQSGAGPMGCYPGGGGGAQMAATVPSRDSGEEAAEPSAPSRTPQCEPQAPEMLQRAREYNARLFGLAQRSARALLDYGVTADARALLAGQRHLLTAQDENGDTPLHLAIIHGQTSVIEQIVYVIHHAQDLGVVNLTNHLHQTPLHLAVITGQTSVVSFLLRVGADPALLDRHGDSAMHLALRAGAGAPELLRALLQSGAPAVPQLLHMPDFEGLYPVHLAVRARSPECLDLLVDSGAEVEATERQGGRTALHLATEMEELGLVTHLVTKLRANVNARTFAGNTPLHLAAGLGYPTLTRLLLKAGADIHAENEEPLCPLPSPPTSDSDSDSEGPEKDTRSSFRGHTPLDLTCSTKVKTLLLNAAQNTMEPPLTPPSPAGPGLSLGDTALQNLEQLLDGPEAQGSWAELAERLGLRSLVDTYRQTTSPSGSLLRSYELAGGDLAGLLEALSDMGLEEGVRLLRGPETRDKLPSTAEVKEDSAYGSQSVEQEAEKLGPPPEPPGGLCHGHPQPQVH

[2] = target: FLAG-tagged NF-κB1 (human) (UniProt P19838); assay: as above

HA-tagged BDV-N (Borna disease virus nucleoprotein) (from UniProt P0C796 1-370)
binding [1]: no binding
binding [2]: binds
